Reference: PubChem BioAssay AID2284383 (EPA ToxCast)
Inconclusive results, whose numbers are uncertain, are shown with a selection of clear calls. Potencies beside an inconclusive call are fits to weak or partial responses and may not hold up. Calls of active or inactive are those of the source. Rule for the calls: active = hit-call score of the fitted dose curve at least 0.9, where 1 is the maximum; inconclusive = response in the unintended direction; inactive = score below 0.9.

By UniProt entry, the sequences of proteins in these tests, tags left out.
UniProt P13631, whole entry, looked up: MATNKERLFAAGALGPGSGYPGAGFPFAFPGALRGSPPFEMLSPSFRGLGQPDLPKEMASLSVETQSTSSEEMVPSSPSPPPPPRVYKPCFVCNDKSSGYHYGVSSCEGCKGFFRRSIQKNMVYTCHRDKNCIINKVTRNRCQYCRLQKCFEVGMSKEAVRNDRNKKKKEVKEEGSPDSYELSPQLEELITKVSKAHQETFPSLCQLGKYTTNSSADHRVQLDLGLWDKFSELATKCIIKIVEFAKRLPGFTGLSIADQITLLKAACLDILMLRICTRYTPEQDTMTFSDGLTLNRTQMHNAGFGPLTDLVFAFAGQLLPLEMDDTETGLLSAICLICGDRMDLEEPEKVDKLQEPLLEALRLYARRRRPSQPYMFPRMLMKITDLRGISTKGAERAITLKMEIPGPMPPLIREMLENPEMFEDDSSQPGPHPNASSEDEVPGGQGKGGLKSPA

Biological target: human Retinoic Acid Receptor gamma (RARg) Agonism, RARG (gene 5916) (UniProt P13631)
Experiment: ERF_TW_NR_COA_hRARG: Eurofins (ERF) Nuclear Receptor (NR) Functional Coactivator Assay for human Retinoic Acid Receptor gamma (RARg) Agonism
Protocol: ERF_TW_NR_COA_hRARG is a biochemical, single-readout assay that uses extracted gene-proteins in a cell-free assay. Measurements were taken 16 hours after chemical dosing in a 96-well plate. […] It is designed to measure FRET using a type of binding reporter as detected by fluorescence intensity of AM580 with fluorimetry technology.Data from the assay component ERF_TW_NR_COA_hRARG was analyzed at the assay endpoint, ERF_TW_NR_COA_hRARG, in the positive analysis fitting direction relative to DMSO as the negative control and baseline of activity. Using a type of binding reporter, gain-of-signal activity can be used to understand changes in binding as they relate to gene RARG. To generalize the intended target to other relatable targets, this assay endpoint is annotated to the nuclear receptor intended target family, where the subfamily is non-steroidal.
Human recombinant retinoic acid receptor […] (RARgamma) receptors expressed in bacteria are used. Test compound and/or vehicle is incubated with the 25 nM receptors and binding buffer in modified Tris-HCl buffer pH 7.4 for 16 hours at 4C. Determination of the amount of complex formed is read spectrofluorimetrically (excitation:337 nm, emission:620/665 nm). Test compound-induced increase in fluorescence by 50 percent or more (>/= 50%) relative to the 0.3 uM AM580 response indicates possible RARgamma receptor agonist activity. […] Membrane protein may change from lot to lot, the concentration used will be adjusted if necessary.

Row | SMILES | AC50 | outcome
1 | O=C(O)C(F)(F)C(F)(F)C(F)(F)OC(F)(C(F)(F)F)C(F)(F)F | inconclusive: 50 µM | –
2 | CN(c1nccc(=O)[nH]1)C1CCN(c2nc3ccccc3n2Cc2ccc(F)cc2)CC1 | inconclusive: 6.9 µM | –
3 | C[C@H]1C[C@@H]2[C@H]([C@@H](O)C[C@@]3(C)[C@H]2CC[C@]3(O)C(=O)CO)[C@@]2(C)C=CC(=O)C=C12 | – | inactive
4 | O=C(O)C(F)(F)OC(F)(F)C(F)(F)OC(F)(F)C(F)(F)OC(F)(F)C(F)(F)C(F)(F)C(F)(F)F | inconclusive: 50 µM | –
